Chains of the proteins cited; added tags and fusions are not shown. Chains listed by the source or under a name are the forms on record and can include a tag or linker.
His-O2 (Opaque2) (Zea mays), one chain, as listed by the source: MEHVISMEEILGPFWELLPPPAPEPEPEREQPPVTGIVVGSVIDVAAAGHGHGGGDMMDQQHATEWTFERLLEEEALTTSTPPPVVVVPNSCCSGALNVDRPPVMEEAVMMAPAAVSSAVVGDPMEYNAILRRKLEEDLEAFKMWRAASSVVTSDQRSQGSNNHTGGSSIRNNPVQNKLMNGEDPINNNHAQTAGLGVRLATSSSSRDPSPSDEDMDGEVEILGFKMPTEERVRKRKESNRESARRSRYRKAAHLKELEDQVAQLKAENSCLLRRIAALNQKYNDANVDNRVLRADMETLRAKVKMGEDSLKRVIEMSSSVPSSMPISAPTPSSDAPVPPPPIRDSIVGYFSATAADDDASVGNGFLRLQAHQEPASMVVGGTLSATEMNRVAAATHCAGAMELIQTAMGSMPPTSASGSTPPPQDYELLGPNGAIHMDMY

According to publication PMC4831773:

Each sequence was assayed on His-O2 (Opaque2) (Zea mays) (assay: EMSA). Conditions: EMSA: 20 ng protein, 5 ng biotin DNA, 10 mM Tris pH 7.5, 50 mM KCl, 1 mM DTT (1x of 10x buffer), plus glycerol, MgCl2, poly(dI-dC), NP-40; 25 C, 20 min; 8% …; recombinant protein; protein details: His (pET-32a fusion); label: biotin.
“GCAAATCCTTTGCATGTACGCAAAACTAGCTAGTTGTCACAAGTTGTATA (double strand) [50-1 probe (50kD-1)]”: no binding.

Same assay, conditions: preferential site; EMSA: 20 ng protein, 5 ng biotin DNA, 10 mM Tris pH 7.5, 50 mM KCl, 1 mM DTT (1x of 10x buffer), plus glycerol, MgCl2, poly(dI-dC), NP-40; 25 C, 20 min; 8% PAGE; recombinant protein; protein details: His (pET-32a fusion); label: biotin
“AGCAAGAAAAGGACAATAATACTTGACATGTAAAGTGAAGCTTATTATACTTCCTA (double strand) [50-2 probe (50kD-2)]”: binds.

Each sequence was assayed against His-ZmMADS47 (Zea mays) (UniProt B6TCJ4) (assay: EMSA). Conditions: EMSA: 20 ng protein, 5 ng biotin DNA, 10 mM Tris pH 7.5, 50 mM KCl, 1 mM DTT (1x of 10x buffer), plus glycerol, MgCl2, poly(dI-dC), NP-40; 25 C, 20 min; 8% …; recombinant protein; protein details: His (pET-32a fusion); label: biotin.
“CACACCATTGTCACCCACATATTTGGACAA (double strand) [Z2-Mu4]”: no binding. “GAAAAACCACTTATTTATTGT (double strand) [probe 3-2 (S2 Table: 19kD 6-1)]”: no binding. “ATATTATTGAGACCAACTAGCAACATAGAAAGCACAATAGTGTACCAACA (double strand) [z1A probe 8]”: no binding. “GAATCGTGCCATGATTTTTTTCTAGTGGAAAATAGCCAAACCAAGCAACA (double strand) [z1A probe 1]”: no binding. “GGTATTGCATCACACCATTG (double strand) [probe 2-2 (S2 Table: 19kD 7-1)]”: no binding. “TCACCCATGTATTTGGACAATACCGAGAGGAAAAACCACTTATTTATTGT (double strand) [z1A probe 3]”: binds. “ATTATATCAAGTTTGTCTTGCTTACGTATAAATTATAACCCAACAAAGTA (double strand) [z1A probe 4]”: no binding. “CATATGTGGCTATCGTTACACATGTGTAAA (double strand) [probe 2-1 (S2 Table: 19kD 7-2)]”: binds. “CATATGTGGCTATCGTTACACATGTGTAAAGGTATTGCATCACACCATTG (double strand) [z1A probe 2]”: binds. “TACTAATATTCTTTTTGCAAAATCCAAAATTAATCTTGCACAAGCACAAG (double strand) [z1A probe 6]”: no binding. “ATCACTAAATGTCAAAACCAACTAGATACCATGTCATCTCTACCTTATCT (double strand) [z1A probe 5]”: no binding. “CACACCATTGTCACCCATGCGTTTGGACAA (double strand) [Z2-Mu5]”: no binding. “GACTGAGATGTGTATAAATATCTCTTAAATTAGTAGCTAATATATCGCAC (double strand) [z1A probe 7]”: no binding. “CACACCATTGTCACCTGTGTATTTGGACAA (double strand) [Z2-Mu3]”: no binding. “TCACCCATGTATTTGGACAATACCGAGAG (double strand) [probe 3-1 (S2 Table: 19kD 6-2)]”: binds.

Same assay, conditions: preferential site; EMSA: 20 ng protein, 5 ng biotin DNA, 10 mM Tris pH 7.5, 50 mM KCl, 1 mM DTT (1x of 10x buffer), plus glycerol, MgCl2, poly(dI-dC), NP-40; 25 C, 20 min; 8% PAGE; recombinant protein; protein details: His (pET-32a fusion); label: biotin
“GCAAATCCTTTGCATGTACGCAAAACTAGCTAGTTGTCACAAGTTGTATA (double strand) [50-1 probe (50kD-1)]”: binds.

Same assay, conditions: weaker than 50-1; EMSA: 20 ng protein, 5 ng biotin DNA, 10 mM Tris pH 7.5, 50 mM KCl, 1 mM DTT (1x of 10x buffer), plus glycerol, MgCl2, poly(dI-dC), NP-40; 25 C, 20 min; 8% PAGE; recombinant protein; protein details: His (pET-32a fusion); label: biotin
“AGCAAGAAAAGGACAATAATACTTGACATGTAAAGTGAAGCTTATTATACTTCCTA (double strand) [50-2 probe (50kD-2)]”: binds more weakly.

Construct, isoform or probe ends are uncertain for at least one entry. Negatives hold for the conditions tested. For some of these results: At least one verdict rests on a figure or table, not on a statement of the authors. For some of these results: A weaker result is weaker than the reference pair of the same experiment.
